The results in this text go back to article PMC8422350.

Protein sequences, listed by entry. Tags and fused reporters are not part of them.
UniProt Q99JF8: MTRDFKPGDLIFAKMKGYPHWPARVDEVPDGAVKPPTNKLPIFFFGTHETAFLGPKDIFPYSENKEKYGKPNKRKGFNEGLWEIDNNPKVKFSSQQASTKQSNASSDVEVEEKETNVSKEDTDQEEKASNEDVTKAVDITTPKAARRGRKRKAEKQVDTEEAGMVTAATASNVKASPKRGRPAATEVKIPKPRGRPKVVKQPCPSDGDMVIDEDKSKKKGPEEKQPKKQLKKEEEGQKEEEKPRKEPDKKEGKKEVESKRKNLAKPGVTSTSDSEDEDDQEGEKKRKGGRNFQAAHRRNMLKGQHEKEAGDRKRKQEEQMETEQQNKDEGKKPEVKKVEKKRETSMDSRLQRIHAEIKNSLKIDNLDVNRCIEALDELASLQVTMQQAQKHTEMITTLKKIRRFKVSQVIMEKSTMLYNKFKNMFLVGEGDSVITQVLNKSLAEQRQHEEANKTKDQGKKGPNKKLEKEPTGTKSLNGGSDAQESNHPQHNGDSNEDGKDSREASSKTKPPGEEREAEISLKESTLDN
UniProt Q80YR6: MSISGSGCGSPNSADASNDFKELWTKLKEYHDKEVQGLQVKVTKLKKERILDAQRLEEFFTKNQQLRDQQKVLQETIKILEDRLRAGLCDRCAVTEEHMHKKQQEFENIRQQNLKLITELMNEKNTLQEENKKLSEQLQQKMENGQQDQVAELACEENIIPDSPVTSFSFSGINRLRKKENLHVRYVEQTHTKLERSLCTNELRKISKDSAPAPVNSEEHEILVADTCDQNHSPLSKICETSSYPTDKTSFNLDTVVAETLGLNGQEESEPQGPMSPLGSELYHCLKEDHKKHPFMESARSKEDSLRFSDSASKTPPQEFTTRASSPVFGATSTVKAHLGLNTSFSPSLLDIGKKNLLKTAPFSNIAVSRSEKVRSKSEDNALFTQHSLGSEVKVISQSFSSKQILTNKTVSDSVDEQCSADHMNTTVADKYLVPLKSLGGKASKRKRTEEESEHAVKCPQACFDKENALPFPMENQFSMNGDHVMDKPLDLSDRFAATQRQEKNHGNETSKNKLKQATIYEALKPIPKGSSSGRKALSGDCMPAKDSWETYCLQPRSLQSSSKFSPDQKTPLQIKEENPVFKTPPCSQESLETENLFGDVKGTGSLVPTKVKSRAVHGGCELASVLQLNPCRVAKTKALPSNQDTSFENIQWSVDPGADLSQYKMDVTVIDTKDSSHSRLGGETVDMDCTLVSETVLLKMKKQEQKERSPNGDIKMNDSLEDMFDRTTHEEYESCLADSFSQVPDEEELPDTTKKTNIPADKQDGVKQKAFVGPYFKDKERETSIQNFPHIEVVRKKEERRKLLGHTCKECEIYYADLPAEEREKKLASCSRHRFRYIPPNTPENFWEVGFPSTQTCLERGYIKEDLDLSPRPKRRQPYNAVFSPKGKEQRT
UniProt O08550: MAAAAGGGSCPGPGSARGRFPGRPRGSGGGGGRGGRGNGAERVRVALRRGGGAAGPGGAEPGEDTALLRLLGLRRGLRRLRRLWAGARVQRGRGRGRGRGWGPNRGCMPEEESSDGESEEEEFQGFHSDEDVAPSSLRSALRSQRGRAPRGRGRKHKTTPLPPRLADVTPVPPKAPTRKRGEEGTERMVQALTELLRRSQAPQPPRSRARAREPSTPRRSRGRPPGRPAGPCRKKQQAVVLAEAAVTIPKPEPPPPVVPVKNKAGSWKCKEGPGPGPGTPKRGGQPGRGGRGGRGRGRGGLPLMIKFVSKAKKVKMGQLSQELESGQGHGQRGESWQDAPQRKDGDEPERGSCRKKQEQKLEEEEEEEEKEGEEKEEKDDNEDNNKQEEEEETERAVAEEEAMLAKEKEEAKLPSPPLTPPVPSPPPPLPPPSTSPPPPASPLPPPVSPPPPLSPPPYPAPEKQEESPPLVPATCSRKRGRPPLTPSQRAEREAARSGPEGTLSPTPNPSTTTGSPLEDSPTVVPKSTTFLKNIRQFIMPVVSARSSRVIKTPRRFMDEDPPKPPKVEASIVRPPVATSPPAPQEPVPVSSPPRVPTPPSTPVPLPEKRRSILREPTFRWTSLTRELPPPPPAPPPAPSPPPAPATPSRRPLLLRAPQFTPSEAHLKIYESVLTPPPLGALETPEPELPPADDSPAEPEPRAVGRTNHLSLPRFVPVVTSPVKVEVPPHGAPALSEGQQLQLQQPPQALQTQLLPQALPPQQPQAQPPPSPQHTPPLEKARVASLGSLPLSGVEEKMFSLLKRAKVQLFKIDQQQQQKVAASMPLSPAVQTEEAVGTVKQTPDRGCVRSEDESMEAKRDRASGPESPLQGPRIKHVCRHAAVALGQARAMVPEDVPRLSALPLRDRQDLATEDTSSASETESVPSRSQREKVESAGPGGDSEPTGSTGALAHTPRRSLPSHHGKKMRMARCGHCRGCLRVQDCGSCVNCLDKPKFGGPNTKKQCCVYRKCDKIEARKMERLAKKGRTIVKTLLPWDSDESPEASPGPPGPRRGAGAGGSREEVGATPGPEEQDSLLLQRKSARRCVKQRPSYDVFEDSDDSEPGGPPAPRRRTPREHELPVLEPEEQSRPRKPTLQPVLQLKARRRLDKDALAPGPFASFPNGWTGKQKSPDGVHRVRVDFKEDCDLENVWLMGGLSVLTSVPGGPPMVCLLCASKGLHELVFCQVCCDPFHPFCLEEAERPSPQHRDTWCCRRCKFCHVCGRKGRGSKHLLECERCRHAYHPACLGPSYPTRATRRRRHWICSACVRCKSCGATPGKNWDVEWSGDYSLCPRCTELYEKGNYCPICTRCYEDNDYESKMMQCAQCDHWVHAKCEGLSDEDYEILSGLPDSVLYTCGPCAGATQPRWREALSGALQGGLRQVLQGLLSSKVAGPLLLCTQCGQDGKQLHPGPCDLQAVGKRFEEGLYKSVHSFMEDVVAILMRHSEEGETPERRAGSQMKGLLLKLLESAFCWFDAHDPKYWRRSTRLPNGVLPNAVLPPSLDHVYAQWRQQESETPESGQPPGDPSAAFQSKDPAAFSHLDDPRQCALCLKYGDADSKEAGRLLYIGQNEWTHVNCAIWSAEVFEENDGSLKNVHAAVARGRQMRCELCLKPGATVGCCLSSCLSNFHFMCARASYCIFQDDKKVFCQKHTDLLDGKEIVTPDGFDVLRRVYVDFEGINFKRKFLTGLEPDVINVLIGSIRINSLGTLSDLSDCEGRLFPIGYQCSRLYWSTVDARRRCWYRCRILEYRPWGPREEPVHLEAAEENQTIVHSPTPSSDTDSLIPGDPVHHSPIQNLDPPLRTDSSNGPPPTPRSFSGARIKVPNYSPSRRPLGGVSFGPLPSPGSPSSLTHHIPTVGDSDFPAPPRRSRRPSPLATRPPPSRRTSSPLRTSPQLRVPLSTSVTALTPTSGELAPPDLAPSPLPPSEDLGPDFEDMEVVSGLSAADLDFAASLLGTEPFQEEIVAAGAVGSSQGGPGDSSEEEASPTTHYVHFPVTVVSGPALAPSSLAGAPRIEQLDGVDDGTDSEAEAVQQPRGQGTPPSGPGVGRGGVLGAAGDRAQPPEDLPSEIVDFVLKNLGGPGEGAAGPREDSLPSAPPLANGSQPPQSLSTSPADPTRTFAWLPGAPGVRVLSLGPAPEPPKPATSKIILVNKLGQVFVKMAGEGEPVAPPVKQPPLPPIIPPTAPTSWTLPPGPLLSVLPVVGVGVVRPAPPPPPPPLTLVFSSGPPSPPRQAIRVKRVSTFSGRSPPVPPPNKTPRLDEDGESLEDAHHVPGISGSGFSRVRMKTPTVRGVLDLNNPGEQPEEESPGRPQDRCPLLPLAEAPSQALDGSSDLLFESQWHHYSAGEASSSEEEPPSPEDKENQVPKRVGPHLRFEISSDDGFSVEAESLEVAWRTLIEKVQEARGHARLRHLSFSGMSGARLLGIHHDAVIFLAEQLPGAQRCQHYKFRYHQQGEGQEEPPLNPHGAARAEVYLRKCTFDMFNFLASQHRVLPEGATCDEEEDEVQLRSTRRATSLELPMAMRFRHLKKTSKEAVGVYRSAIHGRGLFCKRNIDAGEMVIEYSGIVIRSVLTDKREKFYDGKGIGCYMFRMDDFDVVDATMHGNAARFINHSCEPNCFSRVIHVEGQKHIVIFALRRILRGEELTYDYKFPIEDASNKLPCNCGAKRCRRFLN
UniProt O88559: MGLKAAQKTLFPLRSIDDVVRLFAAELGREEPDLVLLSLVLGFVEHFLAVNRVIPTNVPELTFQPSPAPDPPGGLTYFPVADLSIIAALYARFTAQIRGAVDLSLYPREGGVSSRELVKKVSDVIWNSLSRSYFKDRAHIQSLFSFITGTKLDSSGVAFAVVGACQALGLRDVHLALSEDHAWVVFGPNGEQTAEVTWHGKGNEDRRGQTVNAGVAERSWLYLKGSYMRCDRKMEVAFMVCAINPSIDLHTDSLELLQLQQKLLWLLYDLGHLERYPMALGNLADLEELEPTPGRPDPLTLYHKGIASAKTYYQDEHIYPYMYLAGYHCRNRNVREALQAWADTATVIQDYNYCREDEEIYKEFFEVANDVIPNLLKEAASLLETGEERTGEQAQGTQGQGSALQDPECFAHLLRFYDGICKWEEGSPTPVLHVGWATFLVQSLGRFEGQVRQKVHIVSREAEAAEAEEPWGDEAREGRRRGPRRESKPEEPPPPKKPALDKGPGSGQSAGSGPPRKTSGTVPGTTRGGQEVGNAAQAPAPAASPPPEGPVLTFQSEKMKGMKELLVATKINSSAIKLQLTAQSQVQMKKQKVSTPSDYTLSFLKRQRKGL
UniProt P11103: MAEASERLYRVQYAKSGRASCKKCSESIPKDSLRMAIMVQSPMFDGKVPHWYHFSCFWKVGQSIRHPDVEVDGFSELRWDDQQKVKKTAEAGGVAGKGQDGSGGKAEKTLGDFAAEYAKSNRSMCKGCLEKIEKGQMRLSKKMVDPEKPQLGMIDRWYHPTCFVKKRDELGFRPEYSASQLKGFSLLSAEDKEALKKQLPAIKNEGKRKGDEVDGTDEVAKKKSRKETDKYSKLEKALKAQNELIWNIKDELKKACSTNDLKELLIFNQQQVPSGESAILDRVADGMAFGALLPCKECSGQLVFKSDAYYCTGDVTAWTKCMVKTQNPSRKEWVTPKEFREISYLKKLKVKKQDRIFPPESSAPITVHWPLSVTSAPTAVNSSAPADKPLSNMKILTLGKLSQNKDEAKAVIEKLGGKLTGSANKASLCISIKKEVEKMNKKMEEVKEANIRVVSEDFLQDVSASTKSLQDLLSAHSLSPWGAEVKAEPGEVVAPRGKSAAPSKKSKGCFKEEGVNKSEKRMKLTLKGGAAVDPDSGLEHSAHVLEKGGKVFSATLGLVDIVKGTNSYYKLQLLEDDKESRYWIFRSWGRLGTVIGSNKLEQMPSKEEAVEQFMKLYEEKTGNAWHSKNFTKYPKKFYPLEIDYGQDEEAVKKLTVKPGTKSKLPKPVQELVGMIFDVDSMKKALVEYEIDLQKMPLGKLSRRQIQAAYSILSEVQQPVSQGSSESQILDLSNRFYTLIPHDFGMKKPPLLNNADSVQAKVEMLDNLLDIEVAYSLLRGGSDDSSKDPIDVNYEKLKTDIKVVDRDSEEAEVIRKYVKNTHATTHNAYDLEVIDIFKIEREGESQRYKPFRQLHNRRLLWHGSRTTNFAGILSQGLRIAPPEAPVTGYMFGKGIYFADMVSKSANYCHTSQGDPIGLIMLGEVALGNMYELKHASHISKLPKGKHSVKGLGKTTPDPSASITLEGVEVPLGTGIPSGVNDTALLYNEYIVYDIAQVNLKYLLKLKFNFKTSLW

Assay [1] addresses PC4 and SF2 interacting protein (PSIP1/LEDGF), longer isoform p75, endogenous (mouse (endogenous in MEFs and mESCs)) (UniProt Q99JF8). Nature of the assay: affinity purification with mass spectrometry; SILAC-IP-MS in MEFs: nuclear extracts in RIPA buffer with Benzonase; rabbit IgG (R0K0), anti-MOF (R6K4) and anti-PSIP/p75 (R10K8) on Protein A Dynabeads, 4°C 30 min, beads combined after the first wash; ratio over IgG.

Assay [2] has the same target. As to the kind of experiment: affinity purification with mass spectrometry; SILAC-IP-MS in mESCs: nuclear extracts in RIPA buffer with Benzonase; rabbit IgG (R0K0), anti-MOF (R6K4) and anti-PSIP/p75 (R10K8) on Protein A Dynabeads, 4°C 30 min, beads combined after the first wash; ratio over IgG.

No constants are given. Whether binding was seen depends on the method and setting. Binding seen in cells or lysates may run through a third protein. These calls come from enrichment with a bait or labelling near it, and not all partners need be listed. No binding means not detected with the bait.

“C-terminal binding protein interacting protein (CtIP) (from UniProt Q80YR6 1-893)”: the binding entry in assay [1] and in assay [2] was “no binding” throughout.
For MLL2 (from UniProt O08550 1-2713), the binding result in assay [1] and in assay [2] was “no binding” each time.
Turning to Menin (from UniProt O88559 1-611), the binding entry in assay [1] and in assay [2] was “no binding” throughout.
For the substance PARP1 (from UniProt P11103 1-1013), the binding entry in assay [1] and in assay [2] was “binds” in each case.
